Data as given in PubChem BioAssay AID602196 (INSERM, 2012)
Aim: 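Modifiers of cisplatin sensitivity in A549 cells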. Cell system: human A549 lung cancer cells. Reagent: siRNA pair against human genes. Timing: 48 h transfection before cisplatin; time from cisplatin to read-out not stated. Conditions: cisplatin at a dose killing half of control-siRNA cells; exact dose and duration not given. Measured: 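Shift in cisplatin death relative to control siRNA, from -50 (all cells die) to +50 (no cells die); siRNAs harmful on their own scored 0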. Direction: two-siRNA summed score (-2 to +2): higher = both siRNAs protect from cisplatin killing; -2 means both sensitise; mean protection from cisplatin (shift in death): higher = protection from cisplatin killing. Hit rule: 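Each siRNA scores 0 if harmful alone by LDH or WST-1, otherwise +1 if it reduces and -1 if it increases cisplatin killing; a gene is active when both siRNAs agree (sum +2 or -2)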. Meaning of the calls: active = both siRNAs shift cisplatin killing the same way; inactive = no consistent shift, or siRNA harmful alone.
The deposit covers about 23,000 reagents; this is a part drawn at random. Over the whole deposit, 455 (2%) were called active. 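Active includes both protection and sensitisation; some change values fall well beyond the stated -50 to +50 range.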 Unmarked entries are inactive. Further read-outs or replicates are left out here. Not given: the amount of reagent.

NSMF (GeneID 26012) scored two-siRNA summed score (-2 to +2) = 0; mean protection from cisplatin (shift in death) (%) = -17.4.
Against COQ3 (GeneID 51805), the entry reads two-siRNA summed score (-2 to +2) = -1; mean protection from cisplatin (shift in death) (%) = -29.4.
After knock-down of HAO2 (GeneID 51179), the record shows two-siRNA summed score (-2 to +2) = 2 (active); mean protection from cisplatin (shift in death) (%) = 23.1.
CENPQ (GeneID 55166) scored two-siRNA summed score (-2 to +2) = 0; mean protection from cisplatin (shift in death) (%) = -8.2.
After knock-down of ZMAT5 (GeneID 55954) the results were two-siRNA summed score (-2 to +2) = 0; mean protection from cisplatin (shift in death) (%) = 11.
Against CAPN6 (GeneID 827), the entry reads two-siRNA summed score (-2 to +2) = 0; mean protection from cisplatin (shift in death) (%) = -9.1.
Silencing of FAM50B (GeneID 26240) came out at: two-siRNA summed score (-2 to +2) = 0; mean protection from cisplatin (shift in death) (%) = 7.9.
Silencing of ANP32B (GeneID 10541) came out at: two-siRNA summed score (-2 to +2) = 1; mean protection from cisplatin (shift in death) (%) = 13.9.
NLRC3 (GeneID 197358) gave two-siRNA summed score (-2 to +2) = 0; mean protection from cisplatin (shift in death) (%) = -0.6.
After knock-down of ECHS1 (GeneID 1892), the record shows two-siRNA summed score (-2 to +2) = 0; mean protection from cisplatin (shift in death) (%) = -3.3.
Depletion of KCNH5 (GeneID 27133) gave: two-siRNA summed score (-2 to +2) = 0; mean protection from cisplatin (shift in death) (%) = 4.7.
CHRNA7 (GeneID 1139) gave two-siRNA summed score (-2 to +2) = 0; mean protection from cisplatin (shift in death) (%) = -1.3.
With knock-down of UGT3A1 (GeneID 133688), the record shows two-siRNA summed score (-2 to +2) = 1; mean protection from cisplatin (shift in death) (%) = 18.3.
For LOC440043 the deposit lists two-siRNA summed score (-2 to +2) = 0; mean protection from cisplatin (shift in death) (%) = 13.1.
After knock-down of MRM2 (GeneID 29960), the screen gave two-siRNA summed score (-2 to +2) = 1; mean protection from cisplatin (shift in death) (%) = 11.6.
LOC389771 scored two-siRNA summed score (-2 to +2) = 0; mean protection from cisplatin (shift in death) (%) = 6.3.
SERPINB4 (GeneID 6318) gave two-siRNA summed score (-2 to +2) = 0; mean protection from cisplatin (shift in death) (%) = 0.3.
After knock-down of LOC441013, the screen gave two-siRNA summed score (-2 to +2) = 0; mean protection from cisplatin (shift in death) (%) = 5.6.
Silencing of LINC02762 (GeneID 283140) came out at: two-siRNA summed score (-2 to +2) = 0; mean protection from cisplatin (shift in death) (%) = 9.7.
For LOC401887, the values are two-siRNA summed score (-2 to +2) = 0; mean protection from cisplatin (shift in death) (%) = 14.
Depletion of ENTHD1 (GeneID 150350) resulted in: two-siRNA summed score (-2 to +2) = 0; mean protection from cisplatin (shift in death) (%) = 6.
Depletion of LOC347265 gave: two-siRNA summed score (-2 to +2) = 0; mean protection from cisplatin (shift in death) (%) = 11.1.
For ALDH4A1 (GeneID 8659), the entry reads two-siRNA summed score (-2 to +2) = -1; mean protection from cisplatin (shift in death) (%) = -34.9.
For AEBP1 (GeneID 165) the deposit lists two-siRNA summed score (-2 to +2) = 0; mean protection from cisplatin (shift in death) (%) = -6.8.
After knock-down of SF3A2 (GeneID 8175) the results were two-siRNA summed score (-2 to +2) = 0; mean protection from cisplatin (shift in death) (%) = -17.2.
Depletion of PTPRG (GeneID 5793) gave: two-siRNA summed score (-2 to +2) = 1; mean protection from cisplatin (shift in death) (%) = 9.1.

4 successive entries already listed, quoted:
LOC440043 — two-siRNA summed score (-2 to +2) = 0; mean protection from cisplatin (shift in death) (%) = 13.1
MRM2 (GeneID 29960) — two-siRNA summed score (-2 to +2) = 1; mean protection from cisplatin (shift in death) (%) = 11.6
LOC389771 — two-siRNA summed score (-2 to +2) = 0; mean protection from cisplatin (shift in death) (%) = 6.3
SERPINB4 (GeneID 6318) — two-siRNA summed score (-2 to +2) = 0; mean protection from cisplatin (shift in death) (%) = 0.3

The results go on:
DNAJC4 (GeneID 3338) showed two-siRNA summed score (-2 to +2) = 0; mean protection from cisplatin (shift in death) (%) = -5.4.
Depletion of CEACAM5 (GeneID 1048) resulted in: two-siRNA summed score (-2 to +2) = 0; mean protection from cisplatin (shift in death) (%) = 4.
Knock-down of LOC440853 resulted in: two-siRNA summed score (-2 to +2) = 0; mean protection from cisplatin (shift in death) (%) = 5.8.
After knock-down of GNRH1 (GeneID 2796), the screen gave two-siRNA summed score (-2 to +2) = 0; mean protection from cisplatin (shift in death) (%) = -10.9.
DNAJB2 (GeneID 3300) showed two-siRNA summed score (-2 to +2) = 0; mean protection from cisplatin (shift in death) (%) = -5.6.
Against LOC392343, the entry reads two-siRNA summed score (-2 to +2) = 1; mean protection from cisplatin (shift in death) (%) = 8.3.
Silencing of SSRP1 (GeneID 6749) resulted in: two-siRNA summed score (-2 to +2) = 1; mean protection from cisplatin (shift in death) (%) = 3.3.
After knock-down of OIT3 (GeneID 170392), the screen gave two-siRNA summed score (-2 to +2) = -1; mean protection from cisplatin (shift in death) (%) = -16.3.
FRRS1L (GeneID 23732) scored two-siRNA summed score (-2 to +2) = 0; mean protection from cisplatin (shift in death) (%) = 6.
For EP400P1 (GeneID 347918), the entry reads two-siRNA summed score (-2 to +2) = 1; mean protection from cisplatin (shift in death) (%) = 10.6.
With knock-down of KANSL2 (GeneID 54934) the results were two-siRNA summed score (-2 to +2) = 0; mean protection from cisplatin (shift in death) (%) = -5.9.
With knock-down of SEL1L (GeneID 6400), the record shows two-siRNA summed score (-2 to +2) = 0; mean protection from cisplatin (shift in death) (%) = -4.4.
LINC00906 (GeneID 148145) scored two-siRNA summed score (-2 to +2) = 0; mean protection from cisplatin (shift in death) (%) = -0.3.
NFAM1 (GeneID 150372) scored two-siRNA summed score (-2 to +2) = 0; mean protection from cisplatin (shift in death) (%) = -3.9.
